The list shows a part of the results. Most values lie at the level of the controls, where differences are scatter.

In test [1] the test system is ppGalNAc-T3 sensor. The test is described as follows: T3 sensor activation Q score (MG/GFP ratio z-score vs DMSO controls) (SD units); higher = more sensor activation (inhibition of ppGalNAc-T3 glycosylation). Conditions: HEK293 sensor cells; 10 µM; 6 h. As for the experimental part:
(§1)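 Cells were treated with compound at 10 uM for 6 h, then MG/GFP ratio was read by flow cytometry (10,000 cells per well, duplicate wells). Q = (R - R_neg)/SD_neg relative to DMSO vehicle controls; the signal rises when the glycosyltransferase is inhibited.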

The subject of test [2] is ppGalNAc-T2 sensor. The experiment in a line: T2 sensor activation Q score (MG/GFP ratio z-score vs DMSO controls) (SD units); higher = more sensor activation (inhibition of ppGalNAc-T2 glycosylation). Conditions: HEK293 sensor cells; 10 µM; 6 h. As for the experimental part:
as §1

Take `Cc1ccc(C(O)=C2C(=O)C(=O)N(C)C2c2ccc(F)cc2)cc1` (configuration not stated): in test [1], the “T3 sensor activation Q score” value is 0.45. Also, the “T2 sensor activation Q score” value in test [2] was -0.52. In the case of `O=C(NCCc1ccccc1)c1cccc(F)c1`, the “T3 sensor activation Q score” value in test [1] was -0.135. In addition, the “T2 sensor activation Q score” value in test [2] was -1.67. For the molecule `CCCNC(=O)Nc1ccc(C(=O)O)cc1`, in test [1], the “T3 sensor activation Q score” value came out at 0.68. In test [2], the “T2 sensor activation Q score” value was 0.09. For `COc1cc2c(cc1OC)C(c1ccccc1[N+](=O)[O-])NCC2` (configuration not stated), the “T3 sensor activation Q score” value in test [1] is -1.36. The “T2 sensor activation Q score” value in test [2] is -0.865.

On to `Clc1ccc(-c2cn3ccccc3n2)cc1`, for which the “T3 sensor activation Q score” value in test [1] is -1.02. In addition, in test [2], the “T2 sensor activation Q score” value stood at 0.505. For `CN(C)CCN(C)Cc1ccc(Br)cc1`, the “T3 sensor activation Q score” value in test [1] stood at 0.02. The “T2 sensor activation Q score” value in test [2] was determined as 1.43. In the same order, the values of `O=C(c1ccc(Cl)cc1)n1cnc2ccccc21` are -0.56 and -0.29. On to `O=C(Nc1ccccc1)Oc1ccccc1Br`, for which the “T3 sensor activation Q score” value in test [1] is -0.315. For the same molecule, the “T2 sensor activation Q score” value in test [2] was determined as 2.27. Turning to `O=[N+]([O-])c1ccc(N2CCN(Cc3ccc(Br)o3)CC2)cc1`, in test [1], the “T3 sensor activation Q score” value is 0.475. The “T2 sensor activation Q score” value in test [2] is 1.17. Regarding `O=CNC(Cc1ccccc1)C(=O)O` (configuration not stated), the “T3 sensor activation Q score” value in test [1] worked out at 0.365. For the same molecule, in test [2], the “T2 sensor activation Q score” value is -0.6. In the same order, the values of `COc1ccc(CN2CCCCCC2)cc1OC` are -0.265 and 0.055.

With `CCOc1cc(CN2CCN(c3cccc(C)c3C)CC2)ccc1O`, the “T3 sensor activation Q score” value in test [1] came to 0. Further, the “T2 sensor activation Q score” value in test [2] is -0.16. For `CC(C)(C)c1ccc(C(=O)Nc2ccc3c(c2)OCO3)cc1` the same measures were -0.085 and -0.685. For `Cc1ccc(C(=O)NCc2ccc([N+](=O)[O-])cc2)cc1` the same measures were 0.02 and 0.34.

Take `CCOc1ccccc1CN1CCC(O)CC1`: the “T3 sensor activation Q score” value in test [1] worked out at 0.705. Also, the “T2 sensor activation Q score” value in test [2] was found to be 0.065. For `Cc1onc(-c2ccccc2Cl)c1C(=O)N1CC(C)OC(C)C1` (configuration not stated) the same measures were 0.36 and 0.26.

As for `O=[N+]([O-])c1ccc(CN2CCSCC2)cc1`, the “T3 sensor activation Q score” value in test [1] turned out to be 0.27. Moreover, the “T2 sensor activation Q score” value in test [2] is -0.16. For `Cc1ccc(C(C)C)c(OCC(=O)NN)c1` the same measures were 0.865 and 0.135. For `Cc1ccc(CN2CCN(c3ccccn3)CC2)c(C)c1` the same measures were -0.735 and -0.09. Turning to `COc1ccc(-c2ncnn2-c2ccc([N+](=O)[O-])cc2)cc1`, the “T3 sensor activation Q score” value in test [1] worked out at 0.725. Also, the “T2 sensor activation Q score” value in test [2] was 0.915. On to `CCCC1CCC(c2ccc(C(=O)NN)cc2)CC1` (configuration not stated), for which the “T3 sensor activation Q score” value in test [1] amounted to 0.295. Also, the “T2 sensor activation Q score” value in test [2] stood at 0.27. For the molecule `CCCN(CCO)Cc1cccc(Cl)c1`, the “T3 sensor activation Q score” value in test [1] stood at 0.095. For the same molecule, in test [2], the “T2 sensor activation Q score” value is 0.695.

As for `O=[N+]([O-])c1ccc(CN2CCC(O)CC2)cc1`, the “T3 sensor activation Q score” value in test [1] turned out to be 1.11. In test [2], the “T2 sensor activation Q score” value is 2.04. For `Oc1ccc(O)c([S+]2CCCCC2)c1` the same measures were -0.445 and -0.235. For `COc1ccc(CN2CCCCCC2)c(C)c1C` the same measures were 0.26 and -0.04. For the molecule `Cc1ccc(OCC(O)CN2CCN(c3ccccc3)CC2)c(C)c1` (configuration not stated), the “T3 sensor activation Q score” value in test [1] was -0.45. In addition, in test [2], the “T2 sensor activation Q score” value was -0.645.

Turning to `CCN1CCN(C2CC(=O)N(c3ccc(F)cc3)C2=O)CC1` (configuration not stated), the “T3 sensor activation Q score” value in test [1] was -0.41. For the same molecule, the “T2 sensor activation Q score” value in test [2] is -1.09. For `CC(C)(C)C(=O)Nc1ccc(Sc2ccc([N+](=O)[O-])cc2)cc1` the same measures were -0.12 and -0.74. Regarding `NS(=O)(=O)c1ccc(Nc2nc(-c3cccnc3)cs2)cc1`, in test [1], the “T3 sensor activation Q score” value was 0.76. Moreover, the “T2 sensor activation Q score” value in test [2] was found to be 0.1. For `O=C(c1ccc(C(=O)N2CCCCCC2)cc1)N1CCCCCC1` the same measures were 1.4 and -0.335. In the same order, the values of `Cc1ccc(OCC(O)CNC(C)C)cc1` (configuration not stated) are 0.305 and -0.275. In the same order, the values of `COc1cccc(NC(=O)C(c2ccccc2)c2ccccc2)c1` are 0.385 and -0.635. Regarding `CCc1ccccc1NC(=O)c1ccc(C(C)(C)C)cc1`, the “T3 sensor activation Q score” value in test [1] was -0.17. Also, in test [2], the “T2 sensor activation Q score” value is -0.875. For `CC(=O)N1CCN(Cc2ccc(Cl)cc2Cl)CC1`, the “T3 sensor activation Q score” value in test [1] amounted to 0.14. In addition, the “T2 sensor activation Q score” value in test [2] was 0.47.

Turning to `CC(C)(C)NC(=O)c1ccc(Cl)c(Cl)c1`, in test [1], the “T3 sensor activation Q score” value was -0.29. In test [2], the “T2 sensor activation Q score” value was -1.07. For `CC(C)N(CC#CC(C)(C)O)Cc1ccccc1` the same measures were 0.8 and -1.23.

For `COc1ccc(NC(=O)c2sc3nc(C)cc(C)c3c2N)cc1`, the “T2 sensor activation Q score” value in test [2] was found to be 0.22. On the same count and under the same terms, as for `NC(=O)COc1ccccc1O`, the figure is -1.84; as for `CCOc1ccc(NC(=O)Nc2ccccc2)cc1`, 1.5. Still for that read-out and setting: as for `CC1CCCC(NCCN2CCOCC2)C1` (configuration not stated), the figure is -0.01.

Regarding `CCOC(=O)N1CCN(Cc2ccc(F)cc2)CC1`, in test [2], the “T2 sensor activation Q score” value was found to be 0.735. Turning to `CN(CCC(N)=O)Cc1ccccc1`, the “T2 sensor activation Q score” value in test [2] worked out at 0.275. The same measure, in the same setting: in the case of `Cc1cccc(N2CCN(Cc3cccs3)CC2)c1C` it was -0.24. In the case of `Cc1cc(C)c2c(N)c(C(=O)c3ccc(F)cc3)sc2n1`, the “T2 sensor activation Q score” value in test [2] was -0.545. As to `Cc1ccc(NC(=O)N2CCN(C)CC2)cc1`, the “T2 sensor activation Q score” value in test [2] is -0.19.

As to `NC(=O)COc1cccc2cccnc12`, the “T2 sensor activation Q score” value in test [2] was 1.01.

On to `CCN(CC)C(=O)C1CCCN(Cc2ccccc2C)C1` (configuration not stated), for which the “T2 sensor activation Q score” value in test [2] amounted to 0.05. Turning to `CC(=O)C1=C(O)C(=O)N(CCO)C1c1cccc(F)c1` (configuration not stated), in test [2], the “T2 sensor activation Q score” value was -0.155. Take `COc1ccccc1N1CCN(Cc2ccc(NC(C)=O)cc2)CC1`: the “T2 sensor activation Q score” value in test [2] is 1.02. Still for that read-out and setting: as for `C=CCSc1nc(O)c(CC)c(=O)n1-c1ccccc1`, the figure is 0.79; as for `O=C(NCCCCc1ccccc1)c1ccc(Cl)cc1Cl`, -0.57; as for `Cc1cccc(CN2CCN(c3ccccn3)CC2)c1`, -0.21. Take `CN1CCN(C2CC(=O)N(c3cc(Cl)cc(Cl)c3)C2=O)CC1` (configuration not stated): the “T2 sensor activation Q score” value in test [2] is -0.895. Turning to `CCc1nc(C)cc([N+](=O)[O-])c1O`, the “T2 sensor activation Q score” value in test [2] was -0.845. Take `O=C(Nc1ccccc1)Nc1cccc2cccnc12`: the “T2 sensor activation Q score” value in test [2] is -0.805. On the same count and under the same terms, in the case of `COc1cccc(CN2CCSCC2)c1` it was -0.08. On the same count and under the same terms, in the case of `CC1(C)CC(NC(=O)N2c3ccccc3Sc3ccccc32)CC(C)(C)N1` it was -0.925; in that of `O=C(CC1CCCCC1)Nc1ccccc1`, -0.375; in that of `CC(C)CS(=O)(=O)c1cccs1`, -0.9. Same read-out and setting: as for `CCCCNc1ccc(C(=O)O)cc1`, the figure is 0.32; as for `Cc1ccc(NC2=C(NCCO)C(=O)c3ccccc3C2=O)cc1`, -0.55; as for `O=C(Nc1ccc(Cl)cc1)c1ccc2nc3ccccc3nc2c1`, 0.625. Regarding `O=C1C(Nc2ccc(F)c(F)c2)=C(N2CCOCC2)C(=O)c2ccccc21`, the “T2 sensor activation Q score” value in test [2] was -0.675. Take `COc1cccc(Nc2nc(-c3ccccc3)cs2)c1`: the “T2 sensor activation Q score” value in test [2] was -0.79. The same measure, in the same setting: in the case of `NC(=O)CN1CC(=O)NC(=O)C1` it was 1.15. Consider `O=C(NCc1cccnc1)Nc1cccc(Cl)c1`, for which the “T2 sensor activation Q score” value in test [2] came out at 0.1. Same read-out and setting: as for `CC(C)CC(=O)N1CCN(Cc2ccccc2Cl)CC1`, the figure is -0.55; as for `COc1ccc(OC)c(NC2=NS(=O)(=O)c3ccccc32)c1`, 0.565; as for `CC(C)c1ccc(CN(C)C2CCN(C)CC2)cc1`, -1.26. In the case of `Cc1ccc(O)c(CCc2ccc(O)cc2)n1`, in test [2], the “T2 sensor activation Q score” value turned out to be 1.11. For `CC1(c2ccccc2)CC(C)(C)N2C(=O)Cc3cccc1c32` (configuration not stated), the “T2 sensor activation Q score” value in test [2] stood at 0.015.

Turning to `O=C(Nc1cccc(Cl)c1Cl)C12CC3CC(CC(C3)C1)C2`, the “T2 sensor activation Q score” value in test [2] came to 0.985. The same measure, in the same setting: as for `COc1ccc(-c2nnc(N)s2)cc1`, the figure is -0.465; as for `O=c1c(Cl)c(Cl)cnn1Cc1ccccc1`, 0.215. Still for that read-out and setting: as for `COc1ccccc1CC(CC(=O)O)C(=O)O` (configuration not stated), the figure is 0.27; as for `O=C(O)c1ccccc1Sc1ccccc1C(=O)O`, -0.93.
